Laboratory results as given in PubChem BioAssay AID218 (DTP/NCI, 2004).
The list shows only some results of the screen, not a fair sample: it covers a few groups of compounds. Other doses and runs of a compound may be missing. T/C is the treated group as % of the vehicle group. Schedule codes are those of the source, taken here to give the interval after Q, in days (D) or hours (H), and the number of doses after X. Some entries were tested several times; the values are given in rising order. Some T/C values carry the count of animals alive at the toxicity check; without a count or a note in brackets, all were alive then. Some entries give survivors of the animals treated and no T/C: the source holds a T/C of zero for them, seemingly a mark for toxic or unscored doses. Counts of survivors are from the toxicity check, whose day is not always given; animals may have died later.

Tested on: C57BL/6 mice, Adenocarcinoma 755 sc, tumor weight T/C
Assay: NCI In Vivo Anticancer Drug Screen. Data for tumor model Adenocarcinoma 755 (subcutaneous) in C57BL/6 mice
Conditions: T/C endpoint: mean tumor weight, schedule: Q01DX011 (ip), higher T/C = larger tumour; for T/C: evaluated on day 12
Protocol: The antitumor activity of compounds was measured in mice bearing transplantable tumors. Survival or tumor size were measured and the results are expressed as the measurement made in the treated group (T) divided by the measurement made in the vehicle treated control group (C). The tumor model used in this assay is Adenocarcinoma 755 (subcutaneous) in C57BL/6 mice

[1] = dose: 1.0 mg/kg/injection, vehicle: saline
[2] = dose: 2.0 mg/kg/injection, vehicle: saline
[3] = dose: 4.0 mg/kg/injection, vehicle: saline
[4] = dose: 8.0 mg/kg/injection, vehicle: saline
[5] = dose: 16.0 mg/kg/injection, vehicle: saline
[6] = dose: 15.0 mg/kg/injection, vehicle: carboxymethylcellulose (CMC)

O=C(O)Cc1ccc(N(CCCl)CCCl)cc1
T/C [1]: 40 % of control [9 of 10 alive] | T/C [2]: 25 % of control [9 of 10 alive] | T/C [3]: 51 % of control | T/C [4]: 50 % of control | survivor count [5]: 0 of 10

O=C(O)CCc1ccc(N(CCCl)CCCl)cc1
T/C [1]: 55 % of control | survivor count [2]: 3 of 10 | T/C [3]: 85 % of control | T/C [4]: 72 % of control | T/C [5]: 73 % of control [8 of 10 alive]

O=P1(N(CCCl)CCCl)OCC2CCCN21 (stereo not given)
T/C (dose: 7.5 mg/kg/injection, vehicle: saline): 101 % of control | T/C (dose: 15.0 mg/kg/injection, vehicle: saline): 87 % of control | T/C (dose: 30.0 mg/kg/injection, vehicle: saline): 127 % of control | T/C (dose: 31.3 mg/kg/injection, vehicle: saline): 201 % of control | T/C (dose: 62.5 mg/kg/injection, vehicle: saline): 121 % of control | T/C (dose: 125.0 mg/kg/injection, vehicle: saline): 107 % of control [9 of 10 alive] | T/C (dose: 250.0 mg/kg/injection, vehicle: saline): 46 % of control [8 of 10 alive] | survivor count (dose: 500.0 mg/kg/injection, vehicle: saline): 0 of 10

NC(Cc1ccc(N(CCCl)CCCl)c(Cl)c1)C(=O)O (stereo not given)
T/C (dose: 0.25 mg/kg/injection, vehicle: methylcellulose (MC)): 61 % of control [8 of 10 alive] | survivor count (dose: 0.5 mg/kg/injection, vehicle: methylcellulose (MC)): 6 of 10 | T/C (dose: 1.0 mg/kg/injection, vehicle: methylcellulose (MC)): 72 % of control | T/C (dose: 2.0 mg/kg/injection, vehicle: methylcellulose (MC)): 10 % of control [8 of 10 alive]

CN(N=O)C(=N)N[N+](=O)[O-]
T/C (dose: 2.5 mg/kg/injection, vehicle: carboxymethylcellulose (CMC)): 53 % of control | T/C (dose: 5.0 mg/kg/injection, vehicle: carboxymethylcellulose (CMC)): 47 and 132 % of control | T/C (dose: 7.5 mg/kg/injection, vehicle: carboxymethylcellulose (CMC)): 52 % of control | T/C (dose: 10.0 mg/kg/injection, vehicle: carboxymethylcellulose (CMC)): 35 and 80 % of control | T/C [6]: 30 % of control [9 of 10 alive] | survivor count [6]: 2 of 10 | survivor count (dose: 20.0 mg/kg/injection, vehicle: carboxymethylcellulose (CMC)): 0 of 10 | survivor count (dose: 25.0 mg/kg/injection, vehicle: carboxymethylcellulose (CMC)): 0 of 10 and 1 of 10
